# Screening data, single-dose tests

Protein sequences, listed by entry. Tags and fused reporters are not part of them.
UniProt P9WNZ1, whole entry: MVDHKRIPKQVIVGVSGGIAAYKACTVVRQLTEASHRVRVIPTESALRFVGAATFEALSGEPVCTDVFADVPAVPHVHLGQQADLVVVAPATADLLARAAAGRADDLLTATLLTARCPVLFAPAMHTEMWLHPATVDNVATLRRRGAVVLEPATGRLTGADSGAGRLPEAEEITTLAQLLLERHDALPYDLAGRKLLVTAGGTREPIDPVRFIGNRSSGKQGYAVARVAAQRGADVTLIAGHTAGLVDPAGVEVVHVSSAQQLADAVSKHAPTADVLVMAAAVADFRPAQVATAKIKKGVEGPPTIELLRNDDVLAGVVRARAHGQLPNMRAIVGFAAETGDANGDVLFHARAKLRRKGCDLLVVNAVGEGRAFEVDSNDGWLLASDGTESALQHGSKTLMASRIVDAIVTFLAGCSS

The values are deposited in ChEMBL (CHEMBL3988442, “University of Dundee, Small-Polar-MMV Screening Library” (2021)).

Results are given as percent effect.
The record does not define 0% and 100%; most values in the screen are far below 50% and negative numbers occur (in some assays of this library far below -100).
This is an unselected part of the compounds tested.
Two or more numbers in one place are separate tests of the same structure; such repeats can differ widely.

A: 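Cell assay of Leishmania donovani living inside macrophages; the read-out is not stated. Concentration: 30 µM. Direction is inferred from retests: higher values go with stronger inhibition. Size under these conditions: about 69,000 compounds, about 1,000 of them at 50% or above in at least one test.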
B: 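Coenzyme A biosynthesis protein CoaBC, Mycobacterium tuberculosis (UniProt P9WNZ1). Enzyme assay of CoaBC with a phosphate dye (Biomol Green) read at 650 nm. Compounds at 30 µM. Higher reads as stronger inhibition, judged from the few compounds that gave an IC50. Most strong results did not repeat in a second test. Size under these conditions: about 67,000 compounds, about 40 of them at 50% or above in at least one test.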

With O=C(O)C(F)(F)F.O=C(O)C(F)(F)F.[H][C@@]12CN(Cc3ccco3)C[C@H](C(=O)Nc3cccnc3)[C@]1([H])CCO2 the screen gave A: 41.02%. CSC(C)C(=O)NS(=O)(=O)c1ccc(F)c(C(F)(F)F)c1 (stereo not given) read A: -7.521%; B: 1.607%. O=C(C1CCCCN1Cc1nc(-c2ccco2)no1)N1CCCC1 (stereo not given) gave A: 0.3356%; B: 6.745%. Cc1cc(C)n(CC2CCCN2CC(=O)N(C)CCC#N)n1 (stereo not given) read A: 0.2809%; B: 9.662%. Result for COc1ccc(CN2CCC(c3cc(O)nc(C)n3)C2)c(F)c1 (stereo not given) was A: 23.77% & 9.132%; B: -1.456%. Result for CCC(=O)N1CCC(NC2CCCC2)C1 (stereo not given) was A: 17.25%; B: 10.49%. Result for [H][C@]12CC[C@@]3(N=C(c4ccccc4)NC3=O)[C@@]1([H])CN(Cc1ccco1)C2 was A: 32.34%. With Cc1cc(CNC(C)Cn2cncn2)ccc1Br (stereo not given) the screen gave A: -40.35%; B: 7.298%.

CNC(=O)NC1CC2(CCNCC2)c2ccc(C)cc21 (stereo not given) gave A: -8.322% & -0.6642%; B: -7.4%. With [H][C@@]12CCN(C(=O)c3ccncn3)C[C@@]1([H])O[C@@H](C)C2 the screen gave A: -11.99%. Result for N#Cc1cccc(Cl)c1NCCCc1nc(=O)[nH][nH]1 was A: 18.85%. For CC(C(=O)N1CCN(Cc2ccc3c(c2)OCO3)CC1)n1ccnc1 (stereo not given) the result was A: 22.44%; B: 6.464%. With CC1CCN(C(=O)c2cnn3c(-c4ccco4)ccnc23)CC1 the screen gave A: 22.67%; B: 0%. For CC(C)N(C)[C@@H]1CCN(c2ncccn2)[C@H]1Cc1ccncc1.O=C(O)C(F)(F)F.O=C(O)C(F)(F)F the result was A: 23.17%. With [H][C@@]12CCN(CC3CCOCC3)[C@]1([H])CC[C@H](c1nnc(C)o1)O2 the screen gave A: 14%. With COC(=O)[C@@H](NC(=O)c1coc(COc2cccc(F)c2)n1)C(C)C the screen gave A: -6.977%; B: 0%.

Cn1cc(CNc2nc3cc(Cl)ccc3n2C)cn1 gave A: -33.93%; B: -3.906%. For CC(C)COCCC(=O)NS(=O)(=O)c1ccc(Cl)s1 the result was A: 7.555%; B: 14.29%. Result for CCN(c1ccc(C(=O)NCCCN2CCOCC2)cc1)S(=O)(=O)CC was A: 0.6611%; B: 2.564%. Cc1cccc(N2CC3(CCN(S(=O)(=O)c4cccs4)C3)CC2=O)c1 (stereo not given) gave A: -8.273%; B: 1.416%. N#Cc1ccc(OCC(O)CN2CCN(c3nccs3)CC2)cc1 (stereo not given) read A: 1.331%; B: -2.066%. [H][C@@]12C[C@@H](OCc3ccccn3)CN1CCN(C(=O)c1ccnnc1)C2 gave A: 37.16%. With COc1cc(C)c(S(=O)(=O)CC(=O)N(C)C(C)C)cc1OC the screen gave A: 22.27%; B: -3.151%. Result for [H][C@]12CN(Cc3ccccc3CC)CC[C@@]1(O)CCN(S(=O)(=O)N(C)C)C2 was A: -14.75%.

Result for O=C(c1ccc(-n2cc(Br)cn2)cc1)N1CCN(c2cnccn2)CC1 was A: 33.04%; B: 10.76%.

The last 3 entries again:

{"compound": "COc1cc(C)c(S(=O)(=O)CC(=O)N(C)C(C)C)cc1OC", "A": 22.27, "B": -3.151}
{"compound": "[H][C@]12CN(Cc3ccccc3CC)CC[C@@]1(O)CCN(S(=O)(=O)N(C)C)C2", "A": -14.75}
{"compound": "O=C(c1ccc(-n2cc(Br)cn2)cc1)N1CCN(c2cnccn2)CC1", "A": 33.04, "B": 10.76}